Measurements taken from PMC8571522, “siRNA screening identifies METTL9 as a histidine Nπ-methyltransferase that targets the proinflammatory protein S100A9” (The Journal of Biological Chemistry, 2021).
These are yes or no findings as the source states them, for the method shown. In cells and extracts the contact can be indirect. Some entries that bind do so weakly or less than the wild type. Sequences can lack the tags named with a protein.

The chains behind the UniProt entries cited, without tags or fusion partners. Where a name states a change or a piece, a line headed by the entry shows the natural chain unless it says otherwise. Residues count along the entry.
UniProt Q9EPL4, residues 19-318: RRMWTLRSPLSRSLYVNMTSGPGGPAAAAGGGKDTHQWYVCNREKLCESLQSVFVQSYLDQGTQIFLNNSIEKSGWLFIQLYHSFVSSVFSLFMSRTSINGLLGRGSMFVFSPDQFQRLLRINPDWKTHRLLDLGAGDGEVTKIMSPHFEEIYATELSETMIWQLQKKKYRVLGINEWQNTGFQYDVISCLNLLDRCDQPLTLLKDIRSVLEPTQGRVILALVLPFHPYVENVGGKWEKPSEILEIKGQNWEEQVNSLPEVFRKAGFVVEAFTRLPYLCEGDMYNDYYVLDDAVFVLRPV

T1: Flag-tagged mouse S100A9 (mouse) (UniProt P31725)
T1 sequence: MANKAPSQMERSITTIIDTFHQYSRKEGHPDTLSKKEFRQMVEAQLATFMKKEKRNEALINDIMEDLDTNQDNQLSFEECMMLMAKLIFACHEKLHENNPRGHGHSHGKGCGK

T2: GST-fused mouse S100A8 (mouse) (UniProt P27005)
T2 sequence: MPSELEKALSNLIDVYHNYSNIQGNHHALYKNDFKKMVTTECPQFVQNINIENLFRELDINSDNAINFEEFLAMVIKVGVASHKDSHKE


Columns and labels:
[1] = target: T1, Flag-tagged mouse S100A9 (mouse); experiment: co-IP; HEK293T cells transiently expressing Flag-S100A9 together with METTL9 (WT)-HA or METTL9 (ΔSP)-HA; lysis buffer 20 mM Hepes-KOH pH 7.9, 150 mM NaCl, 0.1% Triton X-100, 0.1 mM EDTA; precipitated with ANTI-FLAG M2 Affinity Gel, blot with anti-Flag and anti-HA; normal mouse IgG as negative control
[2] = target: T2, GST-fused mouse S100A8 (mouse); experiment: pull-down; GST or GST-S100A8 immobilised on glutathione beads, mixed for 3 h at 4 °C with whole-cell lysates of HEK293T cells expressing Flag-mS100A9 (cells transfected beforehand with control or METTL9 siRNA); blot with anti-Flag; only the target purified

Row | binding [1] | binding [2] | Molecule
1 | binds | – | METTL9ΔSP-HA, deletion mutant of mouse METTL9-HA lacking the signal peptide (from UniProt Q9EPL4 19-318) (domain or fragment)
2 | – | binds | Flag-tagged mouse S100A9 (protein, UniProt P31725 1-113) MANKAPSQMERSITTIIDTFHQYSRKEGHPDTLSKKEFRQMVEAQLATFMKKEKRNEALINDIMEDLDTNQDNQLSFEECMMLMAKLIFACHEKLHENNPRGHGHSHGKGCGK
